This passage reports binding results from paper PMC12372762.

Protein sequences, listed by entry. Tags and fused reporters are not part of them. Lines headed by an entry give the natural chain unless they say otherwise; changes in a name come on top.
UniProt P01139: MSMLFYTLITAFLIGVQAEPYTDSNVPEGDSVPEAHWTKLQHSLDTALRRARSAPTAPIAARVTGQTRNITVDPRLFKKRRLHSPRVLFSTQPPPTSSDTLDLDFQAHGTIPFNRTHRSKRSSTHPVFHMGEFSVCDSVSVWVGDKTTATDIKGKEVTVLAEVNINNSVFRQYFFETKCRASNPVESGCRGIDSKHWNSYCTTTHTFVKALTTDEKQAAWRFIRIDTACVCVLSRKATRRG
UniProt Q01147: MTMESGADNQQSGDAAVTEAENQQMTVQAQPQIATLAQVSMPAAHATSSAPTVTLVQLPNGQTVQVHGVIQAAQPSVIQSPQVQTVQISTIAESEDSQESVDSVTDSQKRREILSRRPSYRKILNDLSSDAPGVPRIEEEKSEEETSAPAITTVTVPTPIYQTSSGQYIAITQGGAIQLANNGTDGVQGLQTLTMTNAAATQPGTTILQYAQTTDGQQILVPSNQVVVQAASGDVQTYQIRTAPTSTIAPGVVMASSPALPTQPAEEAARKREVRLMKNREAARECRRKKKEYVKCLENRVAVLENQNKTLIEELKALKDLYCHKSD

Results are given in words; binding and its absence hold for the method and conditions named. In cells and extracts the contact can be indirect. A result given as binding can be weak or reduced; the word gives no strength.

The test addresses Nerve growth factor (mouse (endogenous in BV2)) (UniProt P01139). Kind of test: co-IP; cell lysate supernatant incubated with IgG (control) or NGF antibody at 4°C overnight, protein A/G magnetic beads, washing, elution in a low-pH buffer.

For the substance “cAMP response element-binding protein (from UniProt Q01147 1-327)”, the binding result is listed as “binds”.
